# Data as given in paper doi:10.1101/2023.12.14.571674.
# These are yes or no findings as the source states them, for the method shown. Binding seen in cells or lysates may run through a third protein. These calls come from enrichment with a bait or labelling near it, and not all partners need be listed.
# B1: polyphosphoinositide phosphatase (enzyme, UniProt Q92562 1-907)
# chain: MPTAAAPIISSVQKLVLYETRARYFLVGSNNAETKYRVLKIDRTEPKDLVIIDDRHVYTQQEVRELLGRLDLGNRTKMGQKGSSGLFRAVSAFGVVGFVRFLEGYYIVLITKRRKMADIGGHAIYKVEDTNMIYIPNDSVRVTHPDEARYLRIFQNVDLSSNFYFSYSYDLSHSLQYNLTVLRMPLEMLKSEMTQNRQESFDIFEDEGLITQGGSGVFGICSEPYMKYVWNGELLDIIKSTVHRDWLLYIIHGFCGQSKLLIYGRPVYVTLIARRSSKFAGTRFLKRGANCEGDVANEVETEQILCDASVMSFTAGSYSSYVQVRGSVPLYWSQDISTMMPKPPITLDQADPFAHVAALHFDQMFQRFGSPIIILNLVKEREKRKHERILSEELVAAVTYLNQFLPPEHTIVYIPWDMAKYTKSKLCNVLDRLNVIAESVVKKTGFFVNRPDSYCSILRPDEKWNELGGCVIPTGRLQTGILRTNCVDCLDRTNTAQFMVGKCALAYQLYSLGLIDKPNLQFDTDAVRLFEELYEDHGDTLSLQYGGSQLVHRVKTYRKIAPWTQHSKDIMQTLSRYYSNAFSDADRQDSINLFLGVFHPTEGKPHLWELPTDFYLHHKNTMRLLPTRRSYTYWWTPEVIKHLPLPYDEVICAVNLKKLIVKKFHKYEEEIDIHNEFFRPYELSSFDDTFCLAMTSSARDFMPKTVGIDPSPFTVRKPDETGKSVLGNKSNREEAVLQRKTAASAPPPPSEEAVSSSSEDDSGTDREEEGSVSQRSTPVKMTDAGDSAKVTENVVQPMKELYGINLSDGLSEEDFSIYSRFVQLGQSQHKQDKNSQQPCSRCSDGVIKLTPISAFSQDNIYEVQPPRVDRKSTEIFQAHIQASQGIMQPLGKEDSSMYREYIRNRYL
# B2: tyrosine-protein phosphatase non-receptor type 14 (PTPN14) (enzyme, UniProt Q15678 1-1187)
# chain: MPFGLKLRRTRRYNVLSKNCFVTRIRLLDSNVIECTLSVESTGQECLEAVAQRLELRETHYFGLWFLSKSQQARWVELEKPLKKHLDKFANEPLLFFGVMFYVPNVSWLQQEATRYQYYLQVKKDVLEGRLRCTLDQVIRLAGLAVQADFGDYNQFDSQDFLREYVLFPMDLALEEAVLEELTQKVAQEHKAHSGILPAEAELMYINEVERLDGFGQEIFPVKDNHGNCVHLGIFFMGIFVRNRIGRQAVIYRWNDMGNITHNKSTILVELINKEETALFHTDDIENAKYISRLFATRHKFYKQNKICTEQSNSPPPIRRQPTWSRSSLPRQQPYILPPVHVQCGEHYSETHTSQDSIFHGNEEALYCNSHNSLDLNYLNGTVTNGSVCSVHSVNSLNCSQSFIQASPVSSNLSIPGSDIMRADYIPSHRHSAIIVPSYRPTPDYETVMRQMKRGILHTDSQSQSLRNLNIINTHAYNQPEDLVYSQPEMRERHPYTVPYGPQGVYSNKLVSPSDQRNPKNNVVPSKPGASAISHTVSTPELANMQLQGSHNYSTAHMLKNYLFRPPPPYPRPRPATSTPDLASHRHKYVSGSSPDLVTRKVQLSVKTFQEDSSPVVHQSLQEVSEPLTATKHHGTVNKRHSLEVMNSMVRGMEAMTLKSLHLPMARRNTLREQGPPEEGSGSHEVPQLPQYHHKKTFSDATMLIHSSESEEEEEEAPESVPQIPMLREKMEYSAQLQAALARIPNKPPPEYPGPRKSVSNGALRQDQASLPPAMARARVLRHGPAKAISMSRTDPPAVNGASLGPSISEPDLTSVKERVKKEPVKERPVSEMFSLEDSIIEREMMIRNLEKQKMAGLEAQKRPLMLAALNGLSVARVSGREENRVDATRVPMDERFRTLKKKLEEGMVFTEYEQIPKKKANGIFSTAALPENAERSRIREVVPYEENRVELIPTKENNTGYINASHIKVVVGGAEWHYIATQGPLPHTCHDFWQMVWEQGVNVIAMVTAEEEGGRTKSHRYWPKLGSKHSSATYGKFKVTTKFRTDSVCYATTGLKVKHLLSGQERTVWHLQYTDWPDHGCPEDVQGFLSYLEEIQSVRRHTNSMLEGTKNRHPPIVVHCSAGVGRTGVLILSELMIYCLEHNEKVEVPMMLRLLREQRMFMIQTIAQYKFVYQVLIQFLQNSRLI
# B3: LIN7A (protein, UniProt O14910 1-233)
# chain: MLKPSVTSAPTADMATLTVVQPLTLDRDVARAIELLEKLQESGEVPVHKLQSLKKVLQSEFCTAIREVYQYMHETITVNGCPEFRARATAKATVAAFAASEGHSHPRVVELPKTDEGLGFNVMGGKEQNSPIYISRIIPGGVAERHGGLKRGDQLLSVNGVSVEGEHHEKAVELLKAAKDSVKLVVRYTPKVLEEMEARFEKLRTARRRQQQQLLIQQQQQQQQQQTQQNHMS
# B4: GAB1 (protein, UniProt Q13480 1-694)
# chain: MSGGEVVCSGWLRKSPPEKKLKRYAWKRRWFVLRSGRLTGDPDVLEYYKNDHAKKPIRIIDLNLCQQVDAGLTFNKKEFENSYIFDINTIDRIFYLVADSEEEMNKWVRCICDICGFNPTEEDPVKPPGSSLQAPADLPLAINTAPPSTQADSSSATLPPPYQLINVPPHLETLGIQEDPQDYLLLINCQSKKPEPTRTHADSAKSTSSETDCNDNVPSHKNPASSQSKHGMNGFFQQQMIYDSPPSRAPSASVDSSLYNLPRSYSHDVLPKVSPSSTEADGELYVFNTPSGTSSVETQMRHVSISYDIPPTPGNTYQIPRTFPEGTLGQTSKLDTIPDIPPPRPPKPHPAHDRSPVETCSIPRTASDTDSSYCIPTAGMSPSRSNTISTVDLNKLRKDASSQDCYDIPRAFPSDRSSSLEGFHNHFKVKNVLTVGSVSSEELDENYVPMNPNSPPRQHSSSFTEPIQEANYVPMTPGTFDFSSFGMQVPPPAHMGFRSSPKTPPRRPVPVADCEPPPVDRNLKPDRKVKPAPLEIKPLPEWEELQAPVRSPITRSFARDSSRFPMSPRPDSVHSTTSSSDSHDSEENYVPMNPNLSSEDPNLFGSNSLDGGSSPMIKPKGDKQVEYLDLDLDSGKSTPPRKQKSSGSGSSVADERVDYVVVDQQKTLALKSTREAWTDGRQSTESETPAKSVK
# B5: diacylglycerol kinase epsilon (DGKE) (enzyme, UniProt P52429 1-567)
# chain: MEAERRPAPGSPSEGLFADGHLILWTLCSVLLPVFITFWCSLQRSRRQLHRRDIFRKSKHGWRDTDLFSQPTYCCVCAQHILQGAFCDCCGLRVDEGCLRKADKRFQCKEIMLKNDTKVLDAMPHHWIRGNVPLCSYCMVCKQQCGCQPKLCDYRCIWCQKTVHDECMKNSLKNEKCDFGEFKNLIIPPSYLTSINQMRKDKKTDYEVLASKLGKQWTPLIILANSRSGTNMGEGLLGEFRILLNPVQVFDVTKTPPIKALQLCTLLPYYSARVLVCGGDGTVGWVLDAVDDMKIKGQEKYIPQVAVLPLGTGNDLSNTLGWGTGYAGEIPVAQVLRNVMEADGIKLDRWKVQVTNKGYYNLRKPKEFTMNNYFSVGPDALMALNFHAHREKAPSLFSSRILNKAVYLFYGTKDCLVQECKDLNKKVELELDGERVALPSLEGIIVLNIGYWGGGCRLWEGMGDETYPLARHDDGLLEVVGVYGSFHCAQIQVKLANPFRIGQAHTVRLILKCSMMPMQVDGEPWAQGPCTVTITHKTHAMMLYFSGEQTDDDISSTSDQEDIKATE
# B6: Rab11 family-interacting protein 1 (Rab11FIP1) (protein, UniProt Q6WKZ4 1-1283)
# chain: MSLMVSAGRGLGAVWSPTHVQVTVLQARGLRAKGPGGTSDAYAVIQVGKEKYATSVSERSLGAPVWREEATFELPSLLSSGPAAAATLQLTVLHRALLGLDKFLGRAEVDLRDLHRDQGRRKTQWYKLKSKPGKKDKERGEIEVDIQFMRNNMTASMFDLSMKDKSRNPFGKLKDKIKGKNKDSGSDTASAIIPSTTPSVDSDDESVVKDKKKKSKIKTLLSKSNLQKTPLSQSMSVLPTSKPEKVLLRPGDFQSQWDEDDNEDESSSASDVMSHKRTASTDLKQLNQVNFTLPKKEGLSFLGGLRSKNDVLSRSNVCINGNHVYLEQPEAKGEIKDSSPSSSPSPKGFRKKHLFSSTENLAAGSWKEPAEGGGLSSDRQLSESSTKDSLKSMTLPSYRPAPLVSGDLRENMAPANSEATKEAKESKKPESRRSSLLSLMTGKKDVAKGSEGENPLTVPGREKEGMLMGVKPGEDASGPAEDLVRRSEKDTAAVVSRQGSSLNLFEDVQITEPEAEPESKSEPRPPISSPRAPQTRAVKPRLEVSPEAQPTARLPSPTDSPSSLPPLPSSSGQASVPSELGHGADTQSSESPSVFSSLSSPIAAPISTSTPIESWPLVDRGQAKSEGPPLLPKAELQTESLTPVPNSGSSALGSLFKQPSFPANKGTEDSLMGRTRETGTEKNTSSLELEESLPEQPETGRQEEELPRFPCKKQDYSPSSGEAQEVPFALSLSSDGAVSPVGELAAGGDRDLESQAGSLVESKARDAAEEVAPPLPMGASVPSIDSMMRKLEEMGLNLRKDQKKTKKRVSFSEQLFTEEAVAGAALLVEGHSSCPQELNPAWSVAGNASDGEPPESPHAEDSERESVTTPGPATCGAPASPADHLLLPSQEESFSEVPMSEASSAKDTPLFRMEGEDALVTQYQSKASDHEGLLSDPLSDLQLVSDFKSPIMADLNLSLPSIPEVASDDERIDQVEDDGDQVEDDGETAKSSTLDIGALSLGLVVPCPERGKGPSGEADRLVLGEGLCDFRLQAPQASVTAPSEQTTEFGIHKPHLGKSSSLDKQLPGPSGGEEEKPMGNGSPSPPPGTSLDNPVPSPSPSEIFPVTHSFPSSAHSDTHHTSTAESQKKATAEGSAGRVENFGKRKPLLQAWVSPSETHPVSAQPGAGTGSAKHRLHPVKPMNAMATKVANCSLGTATIISENLNNEVMMKKYSPSDPAFAYAQLTHDELIQLVLKQKETISKKEFQVRELEDYIDNLLVRVMEETPNILRIPTQVGKKAGKM
# Molecular target: insulin receptor (human (endogenous in HepG2))
# Assay: affinity purification with mass spectrometry
row,Binder,binding
1,B1,binds
2,B2,binds
3,B3,binds
4,B4,binds
5,B5,binds
6,B6,binds
